Consider one molecule from patent publication US11246857B2, “Anti-fungal inhibitors” (THE JOHNS HOPKINS UNIVERSITY, priority 2017, dated 2022).

The source's definition of the ratio is not given here.

In this data set the test system is human fibroblast. Kind of data set: Toxicity against human fibroblast. The conditions noted are these: therapeutic index calculated from toxicity against human fibroblast and MIC. Type of data set: cell-based. An excerpt: XlogP values are derived from PubChem and describe the lipophilicity of the molecule. The topological polar surface area (tPSA) is a metric for predicting cell penetration, with values <140 to be favorable. […] Toxicity against human fibroblast was used to calculate the therapeutic index TI.

With `Nc1ccc(-c2nc3ccc(Cc4ccc5nc(C6CCC(N)CC6)[nH]c5c4)cc3[nH]2)cc1` (stereo not shown) [DM262], the TI is given as 16.4.
